Test results: paper PMC12858073

The chains behind the UniProt entries cited, without tags or fusion partners. Residues count along the entry.
UniProt P11688, residues 45-1053: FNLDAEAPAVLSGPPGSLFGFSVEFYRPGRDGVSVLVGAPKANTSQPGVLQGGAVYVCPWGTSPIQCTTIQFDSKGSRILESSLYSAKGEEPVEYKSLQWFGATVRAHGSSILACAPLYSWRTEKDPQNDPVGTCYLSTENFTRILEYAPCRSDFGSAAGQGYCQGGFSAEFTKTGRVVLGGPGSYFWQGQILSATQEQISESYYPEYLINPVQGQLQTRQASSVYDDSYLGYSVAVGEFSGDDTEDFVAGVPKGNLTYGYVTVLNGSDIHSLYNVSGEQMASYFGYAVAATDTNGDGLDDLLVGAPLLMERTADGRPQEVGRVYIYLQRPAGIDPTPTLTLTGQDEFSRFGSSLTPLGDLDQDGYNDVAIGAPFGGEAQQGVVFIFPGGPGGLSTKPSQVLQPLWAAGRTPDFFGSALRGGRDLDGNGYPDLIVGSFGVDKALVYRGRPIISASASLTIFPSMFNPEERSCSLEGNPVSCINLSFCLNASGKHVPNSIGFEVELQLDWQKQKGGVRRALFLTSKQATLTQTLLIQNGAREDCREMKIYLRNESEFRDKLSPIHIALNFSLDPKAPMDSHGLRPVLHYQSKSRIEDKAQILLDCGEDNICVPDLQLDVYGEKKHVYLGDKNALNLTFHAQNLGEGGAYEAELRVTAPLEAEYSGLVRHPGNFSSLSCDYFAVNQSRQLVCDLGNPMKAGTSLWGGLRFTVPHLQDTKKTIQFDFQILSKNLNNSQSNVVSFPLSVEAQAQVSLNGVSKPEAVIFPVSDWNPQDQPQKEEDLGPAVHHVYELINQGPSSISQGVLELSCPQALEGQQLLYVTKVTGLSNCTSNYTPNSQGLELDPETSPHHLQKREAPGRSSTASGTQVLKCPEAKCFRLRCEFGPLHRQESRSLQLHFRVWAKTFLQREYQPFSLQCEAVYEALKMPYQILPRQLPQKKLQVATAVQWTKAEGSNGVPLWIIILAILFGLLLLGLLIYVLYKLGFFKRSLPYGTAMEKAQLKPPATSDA
UniProt P58871: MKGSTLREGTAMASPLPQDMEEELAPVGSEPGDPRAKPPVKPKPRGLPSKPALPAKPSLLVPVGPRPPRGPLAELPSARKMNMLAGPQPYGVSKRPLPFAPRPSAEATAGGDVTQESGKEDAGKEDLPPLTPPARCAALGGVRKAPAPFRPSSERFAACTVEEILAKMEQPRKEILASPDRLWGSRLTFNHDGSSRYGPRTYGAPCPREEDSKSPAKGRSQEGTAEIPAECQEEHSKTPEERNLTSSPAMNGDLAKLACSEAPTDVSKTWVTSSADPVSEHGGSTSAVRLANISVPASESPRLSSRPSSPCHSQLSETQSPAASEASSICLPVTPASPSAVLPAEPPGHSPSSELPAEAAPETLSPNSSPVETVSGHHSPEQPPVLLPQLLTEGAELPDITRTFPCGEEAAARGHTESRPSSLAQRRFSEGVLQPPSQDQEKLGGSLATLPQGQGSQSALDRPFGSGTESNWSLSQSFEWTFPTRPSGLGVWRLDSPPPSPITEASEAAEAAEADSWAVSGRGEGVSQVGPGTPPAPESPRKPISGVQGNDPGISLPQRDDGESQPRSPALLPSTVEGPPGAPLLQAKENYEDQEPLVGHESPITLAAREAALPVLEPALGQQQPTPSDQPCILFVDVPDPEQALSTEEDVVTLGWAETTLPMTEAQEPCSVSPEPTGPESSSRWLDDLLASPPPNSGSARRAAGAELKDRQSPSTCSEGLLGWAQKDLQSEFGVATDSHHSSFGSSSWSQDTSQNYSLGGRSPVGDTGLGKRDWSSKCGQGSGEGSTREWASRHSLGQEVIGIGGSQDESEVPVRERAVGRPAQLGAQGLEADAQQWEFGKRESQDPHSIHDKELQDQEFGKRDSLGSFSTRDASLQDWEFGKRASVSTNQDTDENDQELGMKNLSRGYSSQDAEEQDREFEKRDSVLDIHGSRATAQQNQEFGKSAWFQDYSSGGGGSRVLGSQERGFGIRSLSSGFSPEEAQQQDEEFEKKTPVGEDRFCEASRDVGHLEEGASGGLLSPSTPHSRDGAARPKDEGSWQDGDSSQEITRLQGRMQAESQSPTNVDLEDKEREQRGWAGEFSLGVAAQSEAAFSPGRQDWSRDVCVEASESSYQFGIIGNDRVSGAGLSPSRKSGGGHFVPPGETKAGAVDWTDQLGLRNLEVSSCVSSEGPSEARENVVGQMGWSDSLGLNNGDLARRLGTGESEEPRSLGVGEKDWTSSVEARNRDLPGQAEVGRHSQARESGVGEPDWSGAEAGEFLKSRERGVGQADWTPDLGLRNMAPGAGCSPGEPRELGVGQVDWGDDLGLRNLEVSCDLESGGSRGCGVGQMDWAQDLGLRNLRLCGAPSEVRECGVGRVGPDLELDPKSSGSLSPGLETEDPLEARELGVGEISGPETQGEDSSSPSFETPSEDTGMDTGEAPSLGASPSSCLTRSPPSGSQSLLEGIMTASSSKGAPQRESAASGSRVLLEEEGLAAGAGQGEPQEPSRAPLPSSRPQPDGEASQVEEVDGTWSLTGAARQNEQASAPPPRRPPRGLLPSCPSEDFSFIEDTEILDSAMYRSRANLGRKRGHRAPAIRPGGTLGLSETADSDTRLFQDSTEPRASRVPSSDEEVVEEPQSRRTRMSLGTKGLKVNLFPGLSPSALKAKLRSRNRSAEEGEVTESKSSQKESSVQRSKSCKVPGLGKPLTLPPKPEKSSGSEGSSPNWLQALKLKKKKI
UniProt Q8BG05: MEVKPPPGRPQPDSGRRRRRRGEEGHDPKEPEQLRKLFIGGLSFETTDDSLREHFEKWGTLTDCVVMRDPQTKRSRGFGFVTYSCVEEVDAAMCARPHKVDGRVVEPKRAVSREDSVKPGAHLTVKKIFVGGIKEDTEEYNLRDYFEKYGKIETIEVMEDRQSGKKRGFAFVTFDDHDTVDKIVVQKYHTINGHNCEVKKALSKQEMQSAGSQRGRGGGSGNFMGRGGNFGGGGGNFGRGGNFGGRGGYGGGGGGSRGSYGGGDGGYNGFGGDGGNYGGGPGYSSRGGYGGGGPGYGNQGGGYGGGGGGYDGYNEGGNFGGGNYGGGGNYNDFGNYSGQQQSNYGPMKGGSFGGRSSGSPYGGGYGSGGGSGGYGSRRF
UniProt Q7TSC1: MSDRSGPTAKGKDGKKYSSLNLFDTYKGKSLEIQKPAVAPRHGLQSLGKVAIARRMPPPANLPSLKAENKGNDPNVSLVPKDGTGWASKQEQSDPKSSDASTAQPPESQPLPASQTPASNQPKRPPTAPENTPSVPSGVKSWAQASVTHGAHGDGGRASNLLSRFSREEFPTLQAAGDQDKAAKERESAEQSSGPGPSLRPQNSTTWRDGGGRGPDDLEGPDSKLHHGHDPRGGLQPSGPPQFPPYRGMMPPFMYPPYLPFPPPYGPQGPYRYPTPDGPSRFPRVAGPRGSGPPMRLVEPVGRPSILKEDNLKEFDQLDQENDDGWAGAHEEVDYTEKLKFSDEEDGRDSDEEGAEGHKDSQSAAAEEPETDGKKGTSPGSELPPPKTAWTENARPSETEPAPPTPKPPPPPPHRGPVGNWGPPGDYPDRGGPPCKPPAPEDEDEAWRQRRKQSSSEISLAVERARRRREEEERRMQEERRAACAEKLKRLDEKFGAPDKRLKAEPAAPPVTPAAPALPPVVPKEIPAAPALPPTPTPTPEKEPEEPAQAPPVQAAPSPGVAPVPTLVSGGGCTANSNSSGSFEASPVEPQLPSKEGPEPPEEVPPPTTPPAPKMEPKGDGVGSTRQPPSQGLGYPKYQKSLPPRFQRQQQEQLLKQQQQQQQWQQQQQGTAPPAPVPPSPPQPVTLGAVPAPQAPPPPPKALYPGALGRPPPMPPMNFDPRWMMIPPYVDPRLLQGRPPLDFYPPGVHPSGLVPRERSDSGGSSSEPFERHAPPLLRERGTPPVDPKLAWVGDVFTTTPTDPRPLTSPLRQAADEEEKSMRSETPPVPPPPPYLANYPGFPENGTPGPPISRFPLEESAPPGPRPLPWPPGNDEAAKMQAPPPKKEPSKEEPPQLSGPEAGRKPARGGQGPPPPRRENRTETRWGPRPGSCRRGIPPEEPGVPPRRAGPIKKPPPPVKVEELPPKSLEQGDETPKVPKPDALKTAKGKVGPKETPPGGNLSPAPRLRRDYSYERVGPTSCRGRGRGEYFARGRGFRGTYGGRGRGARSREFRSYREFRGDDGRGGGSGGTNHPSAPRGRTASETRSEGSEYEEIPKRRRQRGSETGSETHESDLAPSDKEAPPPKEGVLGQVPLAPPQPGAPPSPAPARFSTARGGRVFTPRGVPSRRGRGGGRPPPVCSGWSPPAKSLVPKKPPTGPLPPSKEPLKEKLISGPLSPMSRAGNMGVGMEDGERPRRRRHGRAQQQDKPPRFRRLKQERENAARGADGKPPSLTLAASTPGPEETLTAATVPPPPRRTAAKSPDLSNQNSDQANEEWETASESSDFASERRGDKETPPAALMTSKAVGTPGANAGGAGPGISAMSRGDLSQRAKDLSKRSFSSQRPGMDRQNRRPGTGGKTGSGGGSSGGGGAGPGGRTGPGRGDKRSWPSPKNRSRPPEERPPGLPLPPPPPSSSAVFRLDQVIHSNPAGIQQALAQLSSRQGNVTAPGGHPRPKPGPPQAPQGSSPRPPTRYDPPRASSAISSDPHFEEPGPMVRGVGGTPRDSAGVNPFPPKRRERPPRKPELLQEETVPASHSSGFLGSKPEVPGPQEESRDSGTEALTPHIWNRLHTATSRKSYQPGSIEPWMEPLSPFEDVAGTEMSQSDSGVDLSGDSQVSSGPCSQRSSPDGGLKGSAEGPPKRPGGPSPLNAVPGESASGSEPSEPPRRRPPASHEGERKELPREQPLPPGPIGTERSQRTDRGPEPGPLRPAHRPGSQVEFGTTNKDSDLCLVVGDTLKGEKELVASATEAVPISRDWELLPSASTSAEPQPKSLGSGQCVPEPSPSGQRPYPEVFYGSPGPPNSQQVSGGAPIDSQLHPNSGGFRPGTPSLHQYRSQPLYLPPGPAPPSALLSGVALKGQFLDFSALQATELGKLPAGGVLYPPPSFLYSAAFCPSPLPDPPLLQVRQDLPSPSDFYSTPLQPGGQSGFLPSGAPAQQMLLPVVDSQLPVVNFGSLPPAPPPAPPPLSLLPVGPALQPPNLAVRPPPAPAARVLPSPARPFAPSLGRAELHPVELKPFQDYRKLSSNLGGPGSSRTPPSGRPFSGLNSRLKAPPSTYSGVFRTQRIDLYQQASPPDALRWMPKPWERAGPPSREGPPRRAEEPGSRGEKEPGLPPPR

T1: Ala10 PABPN1-TurboID (UniProt Q8CCS6)
T1 sequence: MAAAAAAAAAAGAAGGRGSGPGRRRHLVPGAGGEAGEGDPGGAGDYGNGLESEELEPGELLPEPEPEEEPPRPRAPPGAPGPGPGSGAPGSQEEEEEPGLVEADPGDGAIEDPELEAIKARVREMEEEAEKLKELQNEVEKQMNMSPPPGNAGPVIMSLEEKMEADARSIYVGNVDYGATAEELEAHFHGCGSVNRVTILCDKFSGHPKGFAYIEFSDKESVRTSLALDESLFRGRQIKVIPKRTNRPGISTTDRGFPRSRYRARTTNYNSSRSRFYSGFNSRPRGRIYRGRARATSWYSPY

T2: Ala17 PABPN1-TurboID (UniProt Q8CCS6)
T2 sequence: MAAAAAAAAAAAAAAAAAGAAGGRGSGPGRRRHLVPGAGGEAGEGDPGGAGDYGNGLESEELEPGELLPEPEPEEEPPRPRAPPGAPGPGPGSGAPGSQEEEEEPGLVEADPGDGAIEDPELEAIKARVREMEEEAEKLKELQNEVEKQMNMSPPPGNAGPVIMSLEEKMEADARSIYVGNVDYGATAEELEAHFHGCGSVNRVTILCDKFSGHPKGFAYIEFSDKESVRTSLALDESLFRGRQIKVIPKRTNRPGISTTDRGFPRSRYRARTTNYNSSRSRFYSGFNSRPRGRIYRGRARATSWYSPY


Target: T1, Ala10 PABPN1-TurboID
Assay: proximity labelling; PABPN1-TurboID at near-native levels in C2C12 myotubes (doxycycline, biotin); streptavidin capture; label-free quantitative nanoLC-MS/MS against the Mus musculus database; three experiments; strict hits in at least two of three replicates and not in wild type controls

| Molecule | binding |
| --- | --- |
| COL4A2 (from UniProt P08122) | binds |
| ITGA5 (from UniProt P11688 45-1053) | binds |

The next lines start with the values.

| binding | Molecule |
| --- | --- |
| binds | TNKS1BP1 (from UniProt P58871 1-1720) |
| binds | LNPEP (protein, UniProt Q8C129 1-1025) MESFTNDRLQLPRNMIENSMFEEEPDVVDLAKEPCLHPLEPDEVEYEPRGSRLLVRGLGEHEMDEDEEDYESSAKLLGMSFMNRSSGLRNSAAGYRQSPDGTCSLPSARTLVICVFVIVVAVSVIMVIYLLPRCTFTKEGCHKTNQSAELIQPVATNGKVFPWAQIRLPTAIIPLCYELSLHPNLTSMTFRGSVTISLQALQDTRDIILHSTGHNISRVTFMSAVSSQEKQVEILEYPYHEQIAVVAPEPLLTGHNYTLKIEYSANISNSYYGFYGITYTDKSNEKKYFAATQFEPLAARSAFPCFDEPAFKATFIIKITRNEHHTALSNMPKKSSVPAEEGLIQDEFSESVKMSTYLVAFIVGEMRNLSQDVNGTLVSVYAVPEKIGQVHHALDTTIKLLEFYQTYFEIQYPLKKLDLVAIPDFEAGAMENWGLLTFREETLLYDNATSSVADRKLVTKIIAHELAHQWFGNLVTMQWWNDLWLNEGFATFMEYFSVEKIFKELNSYEDFLDARFKTMRKDSLNSSHPISSSVQSSEQIEEMFDSLSYFKGASLLLMLKSYLSEDVFRHAVILYLHNHSYAAIQSDDLWDSFNEVTDKTLDVKKMMKTWTLQKGFPLVTVQRKGTELLLQQERFFLRMQPESQPSDTSHLWHIPISYVTDGRNYSEYRSVSLLDKKSDVINLTEQVQWVKVNSNMTGYYIVHYAHDDWTALINQLKRNPYVLSDKDRANLINNIFELAGLGKVPLRMAFDLIDYLKNETHTAPITEALFQTNLIYNLLEKLGHMDLSSRLVARVHKLLQNQIQQQTWTDEGTPSMRELRSALLEFACAHSLENCTTMATNLFDSWMASNGTQSLPTDVMVTVFKVGARTEKGWLFLFSMYSSMGSEAEKNKILEALASSEDVHKLYWLMKSSLDGDIIRTQKLSLIIRTVGRHFPGHLLAWDFVKENWNKLVHKFHLGSYTIQSIVAGSTHLFSTKTHLSEVQAFFENQSEATLKLRCVQEALEVIQLNIQWMVRNLKTLSQWL |
| binds | RAB21 (protein, UniProt P35282 1-222) MAAAGGGAAAAAGRAYSFKVVLLGEGCVGKTSLVLRYCENKFNDKHITTLQASFLTKKLNIGGKRVNLAIWDTAGQERFHALGPIYYRDSNGAILVYDVTDEDSFQKVKNWVKELRKMLGNEICLCIVGNKIDLEKERHVSIQEAESYAESVGAKHYHTSAKQNKGIEELFLDLCKRMIETAQVDERAKGNGSSQAGAARRGVQIIDDEPQAQSSGGCCSSG |

Target: T2, Ala17 PABPN1-TurboID
Assay: as above

| Molecule | binding |
| --- | --- |
| HNRNPA3 (from UniProt Q8BG05 1-379) | binds |
| ACIN1 (protein, UniProt Q9JIX8 1-1338) MWGRKRPNSSGETRGILSGNRGVDYGSGRGQSGPFEGRWRKLPKMPEAVGTDPSTSRKMAELEEVTLDGKPLQALRVTDLKAALEQRGLAKSGQKSALVKRLKGALMLENLQKHSTPHAAFQPNSQIGEEMSQNSFIKQYLEKQQELLRQRLEREAREAAELEEASAESEDEMTHPEGVASLLPPDFQSSLNRPELELSTHSPRKSSSFSEEKGESDDEKPRKGERRSSRVRQAKSKLPEYSQTAEEEEDQETPSRNLRVRADRNLKIEEEEEEEEEEEDDDDEEEEEVDEAQKSREAEAPTLKQFEDEEGEERTRAKPEKVVDEKPLNIRSQEKGELEKGGRVTRSQEEARRSHLARQQQEKETQIVSLPQEENEVKSSQSLEEKSQSPSPPPLPEDLEKAPVVLQPEQIVSEEETPPPLLTKEASSPPTHIQLQEEMEPVEGPAPPVLIQLSPPNTDAGAREPLASPHPAQLLRSLSPLSGTTDTKAESPAGRVSDESVLPLAQKSSLPECSTQKGVESEREKSAPLPLTVEEFAPAKGITEEPMKKQSLEQKEGRRASHALFPEHSGKQSADSSSSRSSSPSSSSSPSRSPSPDSVASRPQSSPGSKQRDGAQARVHANPHERPKMGSRSTSESRSRSRSRSRSASSSSRKSLSPGVSRDSNTSYTETKDPSCGQEAAAPSGPQLQVLEPKEKAPTFSASVRGRHLSHPEPEQQHVIQRLQPEQGSPKKCEAEEAEPPAATQPQTSETQISHLLESERTHHTVEEKEEVTMDTSENRPENEVPEPPLPVADQVSNDERPEGGAEEEEKKESSMPKSFKRKISVVSATKGVQAGNSDTEGGQPGRKRRWGASTAATQKKPSISITTESLKSLIPDIKPLAGQEAVVDLHADDSRISEDETERNGDDGTHDKGLKICRTVTQVVPAEGQENGQREEEEEKEPEAELPAPPQVSVEVALPPPVEHEVKKVTLGDTLTRRSISQQKSGVSITIDDPVRTAQVPSPPRGKISNIVHISNLVRPFTLGQLKELLGRTGTLVEEAFWIDKIKSHCFVTYSTVEEAVATRTALHGVKWPQSNPKFLCADYAEQDELDYHRGLLVDRPSETKAEEQGAPRPLHPPPPPPVQPPPHPRAEQREQERAVREQWAEREREMERRERTRSEREWDRDKVREGPRSRSRSRDRRRKERAKSKEKKSEKKEKAQEEPPAKLLDDLFRKTKAAPCIYWLPLTESQIVQKEAEQAERAKEREKRRKEREEEEQKEREKEAERERNRQLEREKRREHSRERERDRERERDRGDRERERERDRDRGRERDRRDTKRHSRSRSRSTPVRDRGGRR | binds |
| CPSF7 (protein, UniProt Q8BTV2 1-471) MSEGVDLIDIYADEEFNQDSEFNNTDQIDLYDDVLTAASQPSDDRSSSTEPPPPVRQEPAPKPNNKTPAILYTYSGLRSRRAAVYVGSFSWWTTDQQLIQVIRSIGVYDVVELKFAENRANGQSKGYAEVVVASENSVHKLLELLPGKVLNGEKVDVRPATRQNLSQFEAQARKRECVRVPRGGIPPRAHSRDSSDSADGRATPSENLVPSSARVDKPPSVLPYFNRPPSALPLMGLPPPPIPPPPPLSSSFGVPPPPPGIHYQHLMPPPPRLPPHLAVPPPGAIPPALHLNPAFFPPPNATVGPPPDTYMKASTPYNHHGSRDSGPPPSTVSEAEFEEIMKRNRAISSSAISKAVSGASAGDYSDAIETLLTAIAVIKQSRVANDERCRVLISSLKDCLHGIEAKSYSVGASGSSSRKRHRSRERSPSRSRESSRRHRDLLHNEDRHDDYFQERNREHERHRDRERDRHH | binds |

Continued, values first:

| binding | Molecule |
| --- | --- |
| binds | PRRC2A (from UniProt Q7TSC1 1-2158) |
| binds | PLAA (protein, UniProt P27612 1-794) MASGASRYRLSCSLPGHELDVRGLVCCLYPPGAFVSVSRDRTTRLWAPDSPNRGFTEMHCMSGHSNFVSCVCIIPSSDIYPHGLIATGGNDHNICIFSLDSPMPLYILKGHKDTVCSLSSGKFGTLLSGSWDTTAKVWLNDKCMMTLQGHTAAVWAVKILPEQGLMLTGSADKTIKLWKAGRCERTFLGHEDCVRGLAILSETEFLSCANDASIRRWQITGECLEVYFGHTNYIYSISVFPNSKDFVTTAEDRSLRIWKHGECAQTIRLPAQSIWCCCVLENGDIVVGASDGIIRVFTESEERTASAEEIKAFERELSQATIDSKTGDLGDINAEQLPGREHLSEPGTREGQTRLIRDGERVEAYQWSVSDGRWIKIGDVVGSSGANQQTSGKVLYEGKEFDYVFSIDVNEGGPSYKLPYNVSDDPWLVAYNFLQKNDLNPMFLDQVAKFIIDNTKGQTLGLGNTSFSDPFTGGGRYVPGTSGPSNTVQTADPFTGAGRYMPGSAGMDTTMTGVDPFTGNSAYRSAASKTVNIYFPKKEALTFDQANPTQILGKLKELNGTAPEEKKLTEDDLVLLEKILSLICNNSSEKPTAQQLQILWKAINWPEDIVFPALDILRLSIKHPNVNENFCNEKGDQFSSHLINLLNPKGKPANQLLALRTFCNCFVSQAGQKLMMSQRESLMSHAIELKSGSNKNIHIALATLTLNYSVCFHKDHNIEGKAQCLSVISTILEVVQDLEATFRLLVALGTLISDDSNAIQLAKSLGVDSQIKKYVSVSEPAKVSECCRLVLHLL |
| binds | PCNP (protein, UniProt Q6P8I4 1-178) MADGKAGEEKPEKPQRAGAAGGPEEEAEKPVKTKTVSSSNGGESSSRSAEKRSAEDEAADLPTKPTKMSKFGFAIGSQTARKASAISIRLGASKPKETVPTLAPKTLSVAAAFNEDEDSEPEEMPPEAKMRMKNIGRDTPTSAGPNSFNKGKHGFSDNQKLWERNIKSHLGNVHDQDN |

These are yes or no findings as the source states them, for the method shown. In cells and extracts the contact can be indirect. Here binding means that the protein was enriched with, or labelled near, the bait; the list need not be complete.
